In the assay the target is β-catenin (human (endogenous in SW480)) (UniProt P35222). Nature of the assay: co-IP; in SW480 cells; which protein was precipitated and the conditions are not told.

By UniProt entry, the sequences of proteins in these tests, tags left out. Where a name states a change or a piece, a line headed by the entry shows the natural chain unless it says otherwise. Chains listed by the source or under a name are the forms on record and can include a tag or linker.
UniProt P35222: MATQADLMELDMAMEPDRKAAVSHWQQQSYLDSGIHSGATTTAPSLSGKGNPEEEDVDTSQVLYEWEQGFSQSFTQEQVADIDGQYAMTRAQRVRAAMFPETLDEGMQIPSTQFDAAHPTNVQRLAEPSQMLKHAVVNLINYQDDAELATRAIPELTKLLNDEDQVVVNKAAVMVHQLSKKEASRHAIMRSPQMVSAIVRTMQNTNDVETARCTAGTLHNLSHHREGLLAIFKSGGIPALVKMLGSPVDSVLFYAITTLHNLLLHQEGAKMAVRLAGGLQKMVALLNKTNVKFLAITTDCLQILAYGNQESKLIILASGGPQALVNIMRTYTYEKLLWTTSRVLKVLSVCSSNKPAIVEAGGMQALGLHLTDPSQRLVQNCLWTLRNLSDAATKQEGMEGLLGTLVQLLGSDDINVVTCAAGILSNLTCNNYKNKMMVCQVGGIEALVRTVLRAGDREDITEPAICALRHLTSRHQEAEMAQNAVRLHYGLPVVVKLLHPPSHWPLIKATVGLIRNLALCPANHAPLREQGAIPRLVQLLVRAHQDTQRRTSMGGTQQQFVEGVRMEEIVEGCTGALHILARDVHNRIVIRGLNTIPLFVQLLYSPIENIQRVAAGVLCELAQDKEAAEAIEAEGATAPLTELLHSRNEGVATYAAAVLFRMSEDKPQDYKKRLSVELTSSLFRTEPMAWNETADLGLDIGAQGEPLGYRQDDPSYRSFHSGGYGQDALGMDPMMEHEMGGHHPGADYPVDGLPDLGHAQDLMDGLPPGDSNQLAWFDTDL
Runt-related transcription factor 1 (RUNX1) (Q01196-8, form named): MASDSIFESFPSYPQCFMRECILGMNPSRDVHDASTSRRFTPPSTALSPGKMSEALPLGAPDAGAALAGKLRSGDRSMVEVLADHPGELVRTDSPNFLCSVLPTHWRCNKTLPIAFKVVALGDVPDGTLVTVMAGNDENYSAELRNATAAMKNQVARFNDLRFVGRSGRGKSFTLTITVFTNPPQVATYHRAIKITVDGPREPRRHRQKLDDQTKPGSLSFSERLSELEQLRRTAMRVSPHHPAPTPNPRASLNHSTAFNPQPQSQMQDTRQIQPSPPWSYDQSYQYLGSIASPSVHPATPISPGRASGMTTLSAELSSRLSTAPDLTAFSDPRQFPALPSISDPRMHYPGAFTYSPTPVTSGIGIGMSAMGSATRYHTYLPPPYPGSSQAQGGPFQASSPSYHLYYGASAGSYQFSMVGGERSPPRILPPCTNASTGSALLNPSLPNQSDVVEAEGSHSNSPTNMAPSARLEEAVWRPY

These are yes or no findings as the source states them, for the method shown. In cells and extracts the contact can be indirect. Some entries that bind do so weakly or less than the wild type.

Turning to “Runt-related transcription factor 1 (RUNX1) (from UniProt Q01196-8 1-480)”, the binding entry is on record as “binds”.
